This note sets out measurements from PubChem BioAssay (NCATS).

By AC50 is commonly meant the concentration at which the activity in the assay is half-maximal.

This test in a line: qHTS for identification of novel therapeutic agents for treatment of microphthalmiaassociated transcription factor (MiT) renal cell carcinoma (RCC) (AID 1963991). The following applies: CellTiter-Glo, 48 h; for z-score: stronger effect = lower value. The method in brief: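 Viability of three TFE3-fusion renal carcinoma lines measured by CellTiter-Glo after 48 h treatment with each of 1912 compounds at 11 concentrations. Responses scaled between DMSO (100%) and empty wells (0%) before curve fitting.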
(qHTS replaces the single test concentration by a dilution series.)

Where [1] appears, read: TFE3-RCC UOK109 viability, measured here: UOK109 Z-AUC.
Setting [2] is: TFE3-RCC viability, measured here: UOK124 Z-AUC.
The mark [3] stands for this setting: TFE3-RCC viability, measured here: UOK124 cell viability.
Setting [4] is: TFE3-RCC viability, measured here: UOK145 Z-AUC.
Where [5] appears, read: TFE3-RCC viability, measured here: UOK145 cell viability.

Each structure is given as a SMILES string. Some of the results follow. Shown are side measurements of this screen, not its main read-out; they come without a call. Compounds called inactive in the main read-out are mostly missing here. Potencies come from curve fits of mixed quality, noted in brackets.

`C[C@H](NCc1ccc2c(c1)nc(NC(=O)c1ccc(-c3cn[nH]c3)s1)n2CCc1ccccc1)C(C)(C)C` returned a z-score under setting [1] of -0.51, a z-score under setting [2] of -3.12 and a z-score under setting [4] of -0.837. For the same molecule, the AC50 is, setting by setting: under setting [3], 1.66 µM [falling, full curve]; under setting [5], 3.32 µM [falling, full curve].

For `COc1cc(C[C@@H](CO)[C@H](CO)Cc2ccc(O)c(OC)c2)ccc1O`, the z-score is -0.81 under setting [1], -0.403 under setting [2] and -0.299 under setting [4]. Further, the AC50 reads like this: under setting [3], 16.6 µM [falling, partial curve]; under setting [5], 3.72 µM [falling, full curve].

Turning to `CC(=O)OCC(=O)[C@@]1(O)[C@H](C)C[C@H]2[C@@H]3C=C(C)C4=Cc5c(cnn5-c5ccccc5)C[C@]4(C)[C@@H]3[C@@H](O)C[C@@]21C`, the z-score by setting is: under setting [1], -0.297; under setting [2], 0.349; under setting [4], -0.102. The AC50 by setting is: under setting [3], 10.5 µM [falling, partial curve]; under setting [5], 16.6 µM [falling, partial curve].

As for `O=C(CCCCCCC(=O)Nc1ccc([C@H]2O[C@@H](CSc3nc(-c4ccccc4)c(-c4ccccc4)o3)C[C@@H](c3ccc(CO)cc3)O2)cc1)NO`, the z-score is 0.422 under setting [1], -1.55 under setting [2] and 0.253 under setting [4]. The AC50 runs as follows: under setting [3], 26.4 µM [falling, partial curve]; under setting [5], 33.2 µM [falling, single point].

Consider `C=C1C(=CC=C2CCC[C@]3(C)[C@@H]([C@H](C)CCCC(C)(C)O)CC[C@@H]23)C[C@@H](O)C[C@@H]1O`, for which the z-score under setting [1] is -0.597, the z-score under setting [2] was -1 and the z-score under setting [4] stood at 0.207. Moreover, the AC50 reads like this: under setting [3], 10.5 µM [falling, partial curve]; under setting [5], 9.35 µM [falling, full curve].

For `CCC(C=C[C@@H]1OC(=O)C=C[C@H]1C)=C[C@H](C)CC=CC(C)=C[C@@H](C)C(=O)[C@@H](C)[C@H](O)[C@@H](C)CC(C)=CC(=O)O`, the z-score is, setting by setting: under setting [1], 0.476; under setting [2], 0.183; under setting [4], 0.257. The AC50 is, setting by setting: under setting [3], 0.0392 µM [falling, full curve]; under setting [5], 0.0621 µM [falling, full curve].

With `N#CC(c1ccnc(NCCc2cccnc2)n1)c1nc2ccccc2s1` (stereo not given), the z-score reads like this: under setting [1], -0.511; under setting [2], -0.237; under setting [4], -0.539. For the same molecule, the half-maximal activity concentration (AC50) by setting is: under setting [3], 20.9 µM [falling, partial curve]; under setting [5], 18.7 µM [falling, partial curve].

Take `CC1(C)OC2=C(C(=O)c3ccccc3C2=O)[C@H](NCc2ccccc2)[C@H]1O`: the z-score was -0.725 under setting [1], -1.32 under setting [2] and -0.449 under setting [4]. In addition, the AC50 is 2.64 µM [falling, full curve] under setting [3] and 6.62 µM [falling, full curve] under setting [5].

Consider `O=C(C=Cc1cccc(S(=O)(=O)Nc2ccccc2)c1)NO`, for which the z-score reads like this: under setting [1], -0.77; under setting [2], -1.14; under setting [4], -0.852. In addition, the AC50 under setting [3] is 9.59 µM [falling, full curve] and the AC50 under setting [5] is 9.59 µM [falling, full curve].

Turning to `C[C@@H]1[C@H](O)[C@@H](C)C=CC=CC=CC=CC=CC=CC=C[C@H](O[C@@H]2O[C@H](C)[C@H](O)[C@H](N)[C@@H]2O)C[C@@H]2O[C@](O)(C[C@@H](O)C[C@@H](O)[C@H](O)CC[C@@H](O)C[C@@H](O)CC(=O)O[C@H]1C)C[C@H](O)[C@@H]2C(=O)O`, the z-score is 1.14 under setting [1], 0.943 under setting [2] and -1.19 under setting [4]. Further, the AC50 runs as follows: under setting [3], 3.32 µM [rising, partial curve, poor fit]; under setting [5], 1.18 µM [falling, full curve].

Regarding `Cc1cccc2c1CC[C@H](CN1CCC(c3c(Cl)cccc3Cl)CC1)C[C@@H]2O`, the z-score by setting is: under setting [1], 0.405; under setting [2], -0.0606; under setting [4], 0.275. The AC50 is, setting by setting: under setting [3], 20.9 µM [falling, partial curve]; under setting [5], 23.5 µM [falling, single point].

Consider `CCCc1nn(C)c2c(=O)[nH]c(-c3cc(S(=O)(=O)N4CCN(C)CC4)ccc3OCC)nc12`, for which the z-score was 0.299 under setting [1], -0.401 under setting [2] and -0.259 under setting [4]. The AC50 under setting [3] is 26.4 µM [falling, single point] and the AC50 under setting [5] was 18.7 µM [falling, partial curve].

Turning to `CC(C=CC(=O)NO)=C[C@@H](C)C(=O)c1ccc(N(C)C)cc1`, the z-score is -0.596 under setting [1], -2.3 under setting [2] and -0.674 under setting [4]. The AC50 is 0.743 µM [falling, full curve] under setting [3] and 2.96 µM [falling, full curve] under setting [5].

With `COc1cc2nccc(Oc3ccc(NC(=O)NC4CC4)c(Cl)c3)c2cc1C(N)=O`, the z-score reads like this: under setting [1], -0.768; under setting [2], -0.723; under setting [4], -0.805. In addition, the AC50 is 1.87 µM [falling, full curve] under setting [3] and 1.18 µM [falling, full curve] under setting [5].

Turning to `N[C@H](CSC(c1ccccc1)(c1ccccc1)c1ccccc1)C(=O)O`, the z-score under setting [1] turned out to be 0.891, the z-score under setting [2] came out at 0.171 and the z-score under setting [4] turned out to be 0.733. In addition, the AC50 is, setting by setting: under setting [3], 4.18 µM [falling, partial curve, poor fit]; under setting [5], 20.9 µM [falling, partial curve].

Take `C[C@@H]1CC(=O)NN=C1c1ccc(NN=C(C#N)C#N)cc1`: the z-score is 0.266 under setting [1], 0.0091 under setting [2] and -0.0592 under setting [4]. Further, the AC50 under setting [3] was 23.5 µM [falling, single point] and the AC50 under setting [5] is 20.9 µM [falling, partial curve].

For the molecule `Cc1cc(Nc2ncnc3ccc(-c4ccc(CNCCS(C)(=O)=O)o4)cc23)ccc1Oc1ccn2ncnc2c1`, the z-score is, setting by setting: under setting [1], -0.421; under setting [2], -0.731; under setting [4], -0.251. The AC50 runs as follows: under setting [3], 20.9 µM [falling, partial curve]; under setting [5], 18.7 µM [falling, partial curve].

As to `COc1cc(Cl)cn2c(-c3cccc(NC4CNC4)n3)cnc12`, the z-score is, setting by setting: under setting [1], -0.0436; under setting [2], 0.185; under setting [4], -0.599. For the same molecule, the AC50 is, setting by setting: under setting [3], 23.5 µM [falling, single point]; under setting [5], 14.8 µM [falling, partial curve].

`CC1=C(CC(=O)O)c2cc(F)ccc2C1=Cc1ccc(S(C)=O)cc1` (stereo not given) showed a z-score under setting [1] of 0.815, a z-score under setting [2] of 0.444 and a z-score under setting [4] of 0.401. Also, the AC50 under setting [3] was 37.2 µM [falling, single point] and the AC50 under setting [5] is 26.4 µM [falling, single point].

`CCCCCCOC(=O)N=C(N)c1ccc(NCc2nc3cc(C(=O)N(CCC(=O)OCC)c4ccccn4)ccc3n2C)cc1`: the z-score reads like this: under setting [1], 0.554; under setting [2], 0.378; under setting [4], 0.555. In addition, the AC50 was 37.2 µM [falling, partial curve, poor fit] under setting [3] and 26.4 µM [falling, partial curve, poor fit] under setting [5].

As to `Cc1c(O)cccc1C(=O)N[C@@H](CSc1ccccc1)[C@H](O)CN1C[C@H]2CCCC[C@@H]2C[C@@H]1C(=O)NC(C)(C)C`, the z-score is 0.0757 under setting [1], -0.0375 under setting [2] and 1.18 under setting [4]. Also, the half-maximal activity concentration (AC50) under setting [3] is 29.6 µM [falling, partial curve] and the AC50 under setting [5] was 33.2 µM [falling, single point].

For the molecule `Nc1ncn([C@@H]2O[C@H](CO)[C@@H](O)[C@@H]2O)c(=O)n1`, the z-score is -0.184 under setting [1], -0.197 under setting [2] and -0.453 under setting [4]. For the same molecule, the AC50 was 7.43 µM [falling, partial curve] under setting [3] and 5.26 µM [falling, full curve] under setting [5].

Consider `C1=CCOCc2cc(ccc2OCCN2CCCC2)Nc2nccc(n2)-c2cccc(c2)OCC1`, for which the z-score by setting is: under setting [1], -0.799; under setting [2], -0.718; under setting [4], -1.3. The AC50 is 5.26 µM [falling, full curve] under setting [3] and 6.62 µM [falling, partial curve] under setting [5].

As to `Cc1cc(OCCCc2c(C(=O)O)n(Cc3cccnc3)c3c(-c4c(COc5ccc(N6CCN([S+](C)(=O)[O-])CC6)cc5)nn(C)c4C)cccc23)cc(C)c1Cl`, the z-score runs as follows: under setting [1], 0.653; under setting [2], 0.0109; under setting [4], 0.381. The AC50 by setting is: under setting [3], 16.6 µM [falling, partial curve, poor fit]; under setting [5], 0.935 µM [falling, partial curve, poor fit].
